Numbering of substitutions follows the chain as printed. These are yes or no findings as the source states them, for the method shown. Binding seen in cells or lysates may run through a third protein. For some assays here: Binding can be weak; no strength is given. Where a sequence is shown, tags or fusion partners need not be part of it.
Legend:
FLAG-ACBD4 [1] = molecular target: T1, FLAG-ACBD4 (UniProt Q8NC06); assay: co-IP; as a3, but lysates treated with λPP for 1 h before the IP (Figs. 1 E and S1 A)
T1 sequence: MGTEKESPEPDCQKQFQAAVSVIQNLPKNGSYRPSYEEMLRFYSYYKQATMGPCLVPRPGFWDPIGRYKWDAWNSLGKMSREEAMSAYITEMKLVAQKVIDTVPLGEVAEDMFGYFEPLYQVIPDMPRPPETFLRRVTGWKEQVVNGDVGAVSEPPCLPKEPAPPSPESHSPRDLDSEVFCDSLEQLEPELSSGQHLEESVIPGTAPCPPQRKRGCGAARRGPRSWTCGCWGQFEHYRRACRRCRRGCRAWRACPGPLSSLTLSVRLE

FLAG-ACBD4 [2] = molecular target: T1, FLAG-ACBD4; assay: co-IP; FLAG-ACBD4/5 constructs in COS-7 lysates not treated with λPP, precipitated with anti-FLAG M2 affinity gel 1 h at 4°C, eluted with 3x FLAG peptide; endogenous VAPB by immunoblot (Figs. 1 E and S1 A)
Myc-ACBD5 S269E = molecular target: T2, Myc-ACBD5 S269E (UniProt Q5T8D3); assay: co-IP; Myc-ACBD5 constructs or Myc-VAPB in COS-7 lysates (10 mM Tris-HCl pH 7.4, 150 mM NaCl, 0.5 mM EDTA, 0.5% NP-40, phosphatase inhibitor), Myc-TRAP magnetic agarose beads 1 h at 4°C; immunoblot; in some panels GSK3β WT or K85A coexpressed (Figs. 2 C, 3 A, 5 A, 7 A, S1 C, S4 B)
T2 sequence: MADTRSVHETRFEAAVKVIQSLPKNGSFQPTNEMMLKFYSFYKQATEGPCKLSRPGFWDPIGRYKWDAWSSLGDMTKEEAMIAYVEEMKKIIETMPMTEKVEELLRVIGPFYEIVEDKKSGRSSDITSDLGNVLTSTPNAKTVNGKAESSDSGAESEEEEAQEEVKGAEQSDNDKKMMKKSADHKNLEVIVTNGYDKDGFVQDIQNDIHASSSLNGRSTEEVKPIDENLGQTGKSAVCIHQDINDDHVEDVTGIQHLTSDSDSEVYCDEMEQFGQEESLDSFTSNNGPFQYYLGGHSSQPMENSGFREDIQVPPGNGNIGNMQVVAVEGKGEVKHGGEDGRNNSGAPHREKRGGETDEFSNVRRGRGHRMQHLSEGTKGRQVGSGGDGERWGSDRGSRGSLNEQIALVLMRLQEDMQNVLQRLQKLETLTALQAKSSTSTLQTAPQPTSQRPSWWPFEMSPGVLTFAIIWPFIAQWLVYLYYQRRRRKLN

Myc-ACBD5 S259A/S261A = molecular target: T3, Myc-ACBD5 S259A/S261A (UniProt Q5T8D3); assay: as above
T3 sequence: T2 sequence with S259A, S261A, E269S

Myc-ACBD5 S269A = molecular target: T4, Myc-ACBD5 S269A (UniProt Q5T8D3); assay: as above
T4 sequence: T2 sequence with E269A

- binding (FLAG-ACBD4 [1]): binds
- binding (FLAG-ACBD4 [2]): binds
- binding (Myc-ACBD5 S269E): no binding
- binding (Myc-ACBD5 S259A/S261A): binds
- binding (Myc-ACBD5 S269A): binds
Substance: endogenous VAPB (COS-7 cells)
